Assay results taken from PubChem BioAssay AID493014 (National Center for Advancing Translational Sciences (NCATS), 2011).
The whole screen tested about 340,000 compounds, of which about 170 (0.05%) were called active. This list was built around the results that the source calls inconclusive (neither active nor inactive); the mix of calls is not that of the screen. The call rests on the fitted dose curve; in most records, active means well fitted inhibition curve with a large enough effect in the signal ratio, with a control signal flat (not every such curve was filed as active); inconclusive means small, poorly fitted or top-dose-only effect, or effect the other way, or a change in a side signal; inactive means flat fitted curve, though single readings scatter; the % refers to the signal ratio. Where the call is inconclusive, the potency comes from a doubtful curve fit.

assay: qHTS Assay to Find Inhibitors of Chronic Active B-Cell Receptor Signaling; conditions: ABC-DLBCL IkBa-CBG/CBR reporter, luminescence ratio (green luciferase fused to IkBa over red control in TMD8 lymphoma cells), 4 h; activity change, negative = inhibition: at 46.1 µM (top of the series);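 on activity change, negative = inhibition: plate controls were basal doxycycline-induced cells for no effect and cells given 10 µM MG132 for full effect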
Summary of the method: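 TMD8 human ABC-DLBCL cells with doxycycline-inducible IκBα–green luciferase fusion and unfused red luciferase, in 0.5% FBS medium; compounds up to 46 uM, 4 h at 37C. Green/red luminescence ratio, filter-overlap corrected, fitted to concentration-response curves.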
Potency means the concentration at half of the fitted maximal effect.

SMILES	activity change, negative = inhibition	Potency
O=C(CSc1nnc(Cc2ccccc2)o1)NCc1ccco1	inconclusive: 0.526%	–
O=C(COC(=O)c1cccnc1Cl)NC(=O)NC1CCCCC1	inconclusive: -0.607%	–
CC12CN3CC(C)(CN(C1)C3c1ccccc1F)C2 (stereo not drawn)	inconclusive: -1.58%	–
CCN(CC(=O)Nc1cccc(F)c1)Cc1nc2ccccc2c(=O)[nH]1	inconclusive: -9.42%	–
C[C@]1(C(=O)NCc2cc(F)cc(C(F)(F)F)c2)C=C[C@@H](Cc2ccccc2)N1C(=O)c1ccccc1	inconclusive: -13.3%	–
COC(=O)c1ccc(NC(=S)NC2CCc3ccccc32)cc1 (stereo not drawn)	inactive	–
Oc1c(C(c2ccc(Cl)cc2)N2CCC3(CC2)OCCO3)sc2nc(-c3ccco3)nn12 (stereo not drawn)	inactive	–
O=c1c2ccccc2oc2cc(-c3ccc4cc[nH]c4c3)ccc12	inconclusive: 6.49%	–
N#C/C(C(N)=O)=c1/ccc2c(c1)N1C3=C(CCCC3)CC3CCCCC31N=2 (stereo not drawn)	–	inconclusive: 28.2 µM [falling, single point]
Cc1cc(C)c(C(N)=O)c(Nc2ccc3c(c2)OCCO3)n1	inactive	–
O=[N+]([O-])c1cc2c(cc1Br)CCN2	inactive	–
C=CCSc1nnc(-c2nnc(SCC=C)n2-c2ccccc2)n1-c1ccccc1	inconclusive: 4.77%	–
Cc1ccc(CN2CCSc3ccc(C(=O)NCc4cccnc4)cc32)cc1	inconclusive: -14.8%	–
O=C(Nc1ccc(F)cc1F)N1CCCN(CCOc2ccccc2)CC1	inconclusive: -0.774%	–
O=C(OCc1ccc(Br)cc1)c1cccnc1Cl	inconclusive: 3.91%	–
COC(=O)CNC(=O)c1ccc(NS(=O)(=O)c2cc([N+](=O)[O-])ccc2Cl)cc1	inactive	–
CCOc1ccc(OCCCCNC(C)(C)C)cc1	inactive	–
COc1ccc(C(=O)NC2CCN(C(=S)Nc3ccc(C)cc3)CC2)cc1	inconclusive: -1.37%	–
Cc1ccc(CN(C)C(=O)COc2ccc(S(=O)(=O)N3CCCC3)cc2[N+](=O)[O-])c(C)c1	inactive	–
CCOc1ccccc1OCCOCCN1CCN(Cc2ccccc2)CC1	inactive	–
O=C(NCCc1ccc(F)cc1)Nc1ccccc1Cl	–	inconclusive: 12.6 µM [falling, partial curve]

SMILES	activity change, negative = inhibition	Potency
O=C(Cn1cc2c(n1)CCCC2)NCc1ccccn1	inconclusive: 11%	–
O=C(Nc1ccc(Cl)cn1)C1COc2ccccc2O1 (stereo not drawn)	–	inconclusive: 35.5 µM [falling, single point]
CCCn1nc(Oc2nc(NCC)nc(NC(C)C)n2)ccc1=O	inconclusive: -3.7%	–
COc1ccc(Cc2nn3c(-c4ccccc4Br)nnc3s2)cc1	–	inconclusive: 16.4 µM [falling, partial curve]
O=C(NCCC1CCCCN1S(=O)(=O)c1ccccc1)C(=O)NCc1ccncc1 (stereo not drawn)	–	inconclusive: 14.6 µM [rising, partial curve, poor fit]
CC(=O)c1cccc(NC(=O)N2CCc3ccccc3C2)c1	inactive	–
O=C1NC(=S)N/C1=C/c1ccc(-c2c(Br)cc([N+](=O)[O-])cc2Br)o1	inconclusive: 8.13%	–
CCOc1cccc(C(c2c(C)n(C)n(-c3ccccc3)c2=O)c2c(C)n(C)n(-c3ccccc3)c2=O)c1OC	inconclusive: -0.5%	–
COc1ccc2nc(NC(=O)CCc3cc(OC)c(OC)c(OC)c3)sc2c1	inactive	–
CCOC(=O)[C@H]1[C@H]2COc3ccc(Cl)cc3[C@@H]2N2C(=O)c3cc(F)c(F)cc3NC(=O)[C@@]12C	inconclusive: -3.25%	–
COCCn1c(SCC(=O)N2CCCCCC2)nnc1-c1ccco1	inactive	–
CC(C)C(=O)Nc1ccccc1C(=O)OCC(=O)c1ccc2c(c1)OCCO2	–	inconclusive: 25.9 µM [falling, single point]
CCOC(=O)N1CCN(C(=O)CS(=O)(=O)c2cn(Cc3ccccc3Cl)c3ccccc23)CC1	inactive	–
CCN(CC)c1ccc(NC(=O)c2c(C)noc2C)cc1	–	inconclusive: 12.6 µM [falling, partial curve, poor fit]
COc1cccc(C(=O)NC(=S)Nc2ccccc2N2CCOCC2)c1	inconclusive: 3.28%	–
COCCNCC1C(Oc2ccc(Cl)cc2)C(=O)N1c1ccccc1C (stereo not drawn)	–	inconclusive: 15.8 µM [falling, partial curve, poor fit]
Cc1ccc(S(=O)(=O)CC(=O)c2ccccc2[N+](=O)[O-])cc1	inactive	–
Cc1ccc(S(=O)(=O)N2CCN(C(=O)CSC(=S)N3CCCC3)CC2)c(C)c1	inconclusive: -1.19%	–
COc1cc(-c2[nH]ncc2CN2CCCC2c2nonc2C)cc(OC)c1OC (stereo not drawn)	inconclusive: 2.65%	–
Cc1cc2occ(CC(=O)N(C)CC(=O)Nc3ccccc3Cl)c2cc1C	inactive	–
COc1ccc(CCNC(=O)c2ccc(S(=O)(=O)N3CCCCC3)cc2)cc1	inconclusive: 3.92%	–

SMILES	activity change, negative = inhibition	Potency
O=C(O)c1cnn2c(C(F)(F)F)cc(-c3ccccc3)nc12	inconclusive: 0.0283%	–
CCCCCC(=O)Nc1ccc(-c2csc(N)n2)cc1	inconclusive: -10.6%	–
O=C(CC1c2ccccc2Oc2ccccc21)N1CCN(c2ccccn2)CC1	inconclusive: -5.32%	–
O=Cc1c(N2CCCCCC2)nc2ccccn2c1=O	–	inconclusive: 29.1 µM [rising, single point]
CCCCOC(=O)c1ccc(NC(=O)c2ccoc2C)cc1	–	inconclusive: 4.11 µM [falling, full curve]
O=C(Nc1ccc2c(c1)OCO2)c1ccccc1	–	inconclusive: 7.08 µM [falling, full curve, poor fit]
CCCc1nc2ccccc2n1CCOc1ccccc1	–	inconclusive: 20.6 µM [falling, partial curve]
CC1=NN(C(N)=S)C(=O)C1N=Nc1cccc(C)c1 (stereo not drawn)	–	inconclusive: 11.2 µM [falling, partial curve]
Clc1cccc(OCCCN2CCCC2)c1Cl	inactive	–
O=C(O)CNCC1COc2ccccc2O1 (stereo not drawn)	inactive	–
CC(CC(=O)Nc1ccc(Cl)c([N+](=O)[O-])c1)c1ccccc1 (stereo not drawn)	inconclusive: 8.48%	–
O=C(NC(=S)Nc1ccccc1N1CCCCC1)c1cccs1	inactive	–
O=C(Nc1cccc(Cl)c1)c1cccc(Oc2ccc([N+](=O)[O-])cc2Cl)c1	inconclusive: 8.58%	–
Cc1ccc(NC(=O)c2ccc(Cl)c(S(=O)(=O)N3CCCCC3)c2)nc1	inactive	–
COc1ccc(OC)c(C2C3=C(N=C4SCC(=O)N42)c2ccccc2CC3)c1 (stereo not drawn)	inconclusive: -9.5%	–
COc1cc(C(=O)NS(=O)(=O)c2ccccc2C)ccc1Cc1cn(C)c2ccc(NC(=O)OC3CCCC3)cc12	–	inconclusive: 35.5 µM [falling, single point]
O=C(Nc1cc(S(=O)(=O)N2CCOCC2)ccc1Cl)c1cc([N+](=O)[O-])ccc1Cl	inactive	–
CCCNC(=O)Cn1cnc2sc(C(=O)NCCCN3CCOCC3)c(C)c2c1=O	–	inconclusive: 17.8 µM [falling, partial curve, poor fit]
N#CC1=C(N)OC2=C(C(=O)CC(c3ccccc3)C2)C1c1ccoc1 (stereo not drawn)	inactive	–
CCC/C(O)=C1\C(=O)CC(C)(C)CC1=Nc1ccccc1OC	inconclusive: -1.63%	–
Oc1ccccc1CNc1ccc(OC(F)(F)F)cc1	inconclusive: -13%	–

For reference, part of the list above:
SMILES	activity change, negative = inhibition	Potency
CCCCCC(=O)Nc1ccc(-c2csc(N)n2)cc1	inconclusive: -10.6%	–
O=C(CC1c2ccccc2Oc2ccccc21)N1CCN(c2ccccn2)CC1	inconclusive: -5.32%	–
O=Cc1c(N2CCCCCC2)nc2ccccn2c1=O	–	inconclusive: 29.1 µM [rising, single point]
CCCCOC(=O)c1ccc(NC(=O)c2ccoc2C)cc1	–	inconclusive: 4.11 µM [falling, full curve]
O=C(Nc1ccc2c(c1)OCO2)c1ccccc1	–	inconclusive: 7.08 µM [falling, full curve, poor fit]
CCCc1nc2ccccc2n1CCOc1ccccc1	–	inconclusive: 20.6 µM [falling, partial curve]
CC1=NN(C(N)=S)C(=O)C1N=Nc1cccc(C)c1 (stereo not drawn)	–	inconclusive: 11.2 µM [falling, partial curve]
Clc1cccc(OCCCN2CCCC2)c1Cl	inactive	–
O=C(O)CNCC1COc2ccccc2O1 (stereo not drawn)	inactive	–
CC(CC(=O)Nc1ccc(Cl)c([N+](=O)[O-])c1)c1ccccc1 (stereo not drawn)	inconclusive: 8.48%	–
O=C(NC(=S)Nc1ccccc1N1CCCCC1)c1cccs1	inactive	–
O=C(Nc1cccc(Cl)c1)c1cccc(Oc2ccc([N+](=O)[O-])cc2Cl)c1	inconclusive: 8.58%	–
Cc1ccc(NC(=O)c2ccc(Cl)c(S(=O)(=O)N3CCCCC3)c2)nc1	inactive	–
COc1ccc(OC)c(C2C3=C(N=C4SCC(=O)N42)c2ccccc2CC3)c1 (stereo not drawn)	inconclusive: -9.5%	–
COc1cc(C(=O)NS(=O)(=O)c2ccccc2C)ccc1Cc1cn(C)c2ccc(NC(=O)OC3CCCC3)cc12	–	inconclusive: 35.5 µM [falling, single point]
O=C(Nc1cc(S(=O)(=O)N2CCOCC2)ccc1Cl)c1cc([N+](=O)[O-])ccc1Cl	inactive	–
CCCNC(=O)Cn1cnc2sc(C(=O)NCCCN3CCOCC3)c(C)c2c1=O	–	inconclusive: 17.8 µM [falling, partial curve, poor fit]
N#CC1=C(N)OC2=C(C(=O)CC(c3ccccc3)C2)C1c1ccoc1 (stereo not drawn)	inactive	–

Carrying on.

SMILES	activity change, negative = inhibition	Potency
O=C(O)C1=C[C@H](c2ccc(C(F)(F)F)cc2)C[C@H](OCc2ccc(CO)cc2)O1	inactive	–
COc1ccccc1NC(=O)CCCCCN1C(=O)c2cccc3cccc(c23)C1=O	inconclusive: 0.254%	–
Cc1ccc(S(=O)(=O)NCc2ccc(/C=C(/C#N)C(=O)NCc3ccccc3)o2)cc1	inconclusive: 4%	–
CC(=O)Nc1ccc(N2C(=O)CSC2c2cccc(Br)c2)cc1 (stereo not drawn)	inactive	–
CC1CCN(C(=O)c2[nH]cnc2C(=O)NC2CCN(C(=O)OC(C)(C)C)CC2)CC1	inactive	–
Cc1cccc2cc(CN(Cc3cccs3)C(c3nnnn3C3CCCC3)C(C)C)c(=O)[nH]c12 (stereo not drawn)	inconclusive: -8.76%	–
CC1CCN(C(=O)CSc2nnc(-c3cccs3)o2)CC1	inconclusive: 11.1%	–
CCN=c1sc2ccccc2n1CC(O)COc1ccccc1 (stereo not drawn)	–	inconclusive: 29.1 µM [falling, single point]
Cc1ccc(-c2nc(N/N=C/c3ccccc3[N+](=O)[O-])c3ccccc3n2)cc1	inactive	–
CCC(=O)Nc1ccc(NC(=O)c2oc3ccccc3c2C)cc1	inconclusive: 4.27%	–
COc1ccc(Cl)cc1NC(=O)CN1CCN(Cc2ccccc2)CC1	inactive	–
O=C(COc1ccccc1[N+](=O)[O-])Nc1cccc(S(=O)(=O)NC2=NCCCCC2)c1	–	inconclusive: 29.1 µM [falling, single point]
NC(N)=NNC(=O)c1ccccc1Cl	–	inconclusive: 18.4 µM [falling, partial curve, poor fit]
CC(=O)NCC(=O)N(c1ccccc1)C1(C(=O)NC2CCCCC2)CCCCC1	inconclusive: 7.21%	–
COc1ccc(C2=NOC(C(=O)NCc3ccc(F)cc3)C2)cc1 (stereo not drawn)	inconclusive: -22.2%	–
O=C1CCOc2cc(OCc3ccccc3)ccc21	–	inconclusive: 23.1 µM [falling, single point]
Cc1cc(C(=O)Nc2ccc3c(c2)OCCO3)c2ccccc2n1	–	inconclusive: 25.1 µM [falling, single point]
CCOc1cc(/C=N/O)ccc1OCc1ccccc1F	inconclusive: -8.93%	–
Cc1nc(SCC(=O)N2CCc3ccccc3C2)c2c(C)c(C)sc2n1	inconclusive: 2.16%	–
Cc1[nH]c2ccccc2c1C=NNC(=O)c1cc(-c2cccnc2)nc2ccccc12	inactive	–
